No constants are given. Whether binding was seen depends on the method and setting. In cells and extracts the contact can be indirect.
Experiments:
[1] = target: FLAG-tagged SUZ12 RIF truncation (UniProt Q15022); assay: co-IP
[2] = target: FLAG-tagged SUZ12 NEC truncation (UniProt Q15022); assay: co-IP

By UniProt entry, the sequences of proteins in these tests, tags left out. Chains listed by the source or under a name are the forms on record and can include a tag or linker. Residues count along the entry.
FLAG-tagged SUZ12 RIF truncation (Q15022, residues 427-739): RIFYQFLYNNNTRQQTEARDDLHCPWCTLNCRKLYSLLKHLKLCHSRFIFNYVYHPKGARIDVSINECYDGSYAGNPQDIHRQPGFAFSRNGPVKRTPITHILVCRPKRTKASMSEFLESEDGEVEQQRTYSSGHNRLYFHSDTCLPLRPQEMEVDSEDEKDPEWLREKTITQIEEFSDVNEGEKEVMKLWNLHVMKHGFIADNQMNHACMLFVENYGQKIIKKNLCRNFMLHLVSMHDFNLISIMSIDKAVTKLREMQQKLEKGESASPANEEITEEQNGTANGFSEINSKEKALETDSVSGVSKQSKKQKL
FLAG-tagged SUZ12 NEC truncation (Q15022, residues 492-739): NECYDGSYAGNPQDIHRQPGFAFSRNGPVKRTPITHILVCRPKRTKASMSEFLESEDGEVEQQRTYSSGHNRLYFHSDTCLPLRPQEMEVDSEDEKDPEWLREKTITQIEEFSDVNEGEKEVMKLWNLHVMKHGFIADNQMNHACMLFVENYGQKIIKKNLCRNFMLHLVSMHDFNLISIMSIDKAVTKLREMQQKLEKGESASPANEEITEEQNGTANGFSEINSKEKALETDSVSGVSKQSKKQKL
UniProt Q9Y483: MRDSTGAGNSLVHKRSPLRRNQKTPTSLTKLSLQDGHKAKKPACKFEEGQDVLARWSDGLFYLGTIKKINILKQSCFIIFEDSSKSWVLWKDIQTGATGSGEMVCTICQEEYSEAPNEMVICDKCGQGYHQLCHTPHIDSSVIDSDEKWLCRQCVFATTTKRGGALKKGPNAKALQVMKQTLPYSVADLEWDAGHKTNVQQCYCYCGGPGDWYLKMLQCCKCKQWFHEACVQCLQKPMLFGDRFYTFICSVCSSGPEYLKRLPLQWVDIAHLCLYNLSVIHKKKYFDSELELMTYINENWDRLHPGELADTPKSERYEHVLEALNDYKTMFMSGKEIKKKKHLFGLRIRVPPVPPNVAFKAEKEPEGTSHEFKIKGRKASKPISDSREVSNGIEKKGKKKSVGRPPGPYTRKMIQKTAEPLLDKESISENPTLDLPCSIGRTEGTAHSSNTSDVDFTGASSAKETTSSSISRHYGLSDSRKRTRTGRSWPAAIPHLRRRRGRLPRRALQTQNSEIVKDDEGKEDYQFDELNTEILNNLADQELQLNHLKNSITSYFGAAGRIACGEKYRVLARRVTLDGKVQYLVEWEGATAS

binding [1]: no binding
binding [2]: no binding
Substance: MTF2 (from UniProt Q9Y483 1-593)

Source: article doi:10.1101/2025.07.18.665585
